Data taken from patent US20090247646A1, “USE OF RESVERATROL AND DERIVATIVES THEREOF FOR PROMOTING THE WELLNESS STATE IN MAMMALS” (priority 2006, published 2009).
Further values from the same series stand in other lists.

System: gene expression in heart tissue
Assay: Genome-wide gene expression in heart tissue of old mice fed a resveratrol-supplemented diet (Affymetrix Mouse Genome 430 2.0 array)
Type: in vivo

Measured: Effect of resveratrol on changeing gene expression from old to young profile

Oc1ccc(/C=C/c2cc(O)cc(O)c2)cc1 [resveratrol, 3,4′,5-Trihydroxy-trans-stilbene]
80-90%: 1437149_at solute carrier family 6 (neurotransmitter transporter, taurine), member 6 [BLAST] | 1437637_at putative homeodomain transcription factor 2 | 1448363_at yes-associated protein | 1448538_a_at DNA segment, Chr 4, Wayne State University 53, expressed | 1448553_at myosin, heavy polypeptide 6, cardiac muscle, alpha | 1448997_at pleckstrin homology, Sec7 and coiled-coil domains 1
>100%: 1436014_a_at RUN and SH3 domain containing 1 | 1436173_at deleted in liver cancer 1 | 1436348_at Mus musculus transcribed sequences | 1436420_a_at importin 4 | 1436839_at coactosin-like 1 (Dictyostelium) | 1437513_a_at tumor differentially expressed 2 | 1437729_at ribosomal protein L27a | 1437875_at bicaudal D homolog 2 (Drosophila) | 1438008_at golgi associated, gamma adaptin ear containing, ARF binding protein 3 | 1438545_at solute carrier family 25 (mitochondrial carrier; adenine nucleotide translocator), member 5 | 1438673_at solute carrier family 4, sodium bicarbonate cotransporter, member 7 | 1439478_at mitochondrial acyl-CoA thioesterase 1 [BLAST] | 1439530_a_at Mus musculus similar to RelA-associated inhibitor (Inhibitor of ASPP protein) (Protein iASPP) (PPP1R13B-like protein) (LOC243869), mRNA | 1439800_at Mus musculus transcribed sequences | 1440870_at PR domain containing 16 | 1448121_at WW domain binding protein 2 | 1448151_at ELAV (embryonic lethal, abnormal vision, Drosophila)-like 1 (Hu antigen R) | 1448189_a_at flightless I homolog (Drosophila) | 1448206_at proteasome (prosome, macropain) subunit, alpha type 2 | 1448230_at ubiquitin specific protease 10 | 1448309_at adaptor-related protein complex 3, mu 1 subunit | 1448330_at glutathione S-transferase, mu 1 | 1448390_a_at dehydrogenase/reductase (SDR family) member 3 | 1448448_a_at choline kinase-like | 1448467_a_at tangerin | 1448503_at myeloid cell leukemia sequence 1 | 1448618_at major vault protein | 1448657_a_at DnaJ (Hsp40) homolog, subfamily B, member 10 | 1448688_at podocalyxin-like | 1448690_at potassium channel, subfamily K, member 1 | 1448691_at expressed sequence AI663987 | 1448747_at F-box only protein 32 | 1448923_at protein kinase, interferon inducible double stranded RNA dependent activator
<60%: 1437863_at butyrylcholinesterase | 1443755_at No description found | 1448183_a_at hypoxia inducible factor 1, alpha subunit | 1448348_at GPI-anchored membrane protein 1 | 1448364_at cyclin G2 | 1448541_at kinesin 2
60-70%: 1436590_at protein phosphatase 1, regulatory (inhibitor) subunit 3B | 1437901_a_at vacuolar protein sorting 41 (yeast) | 1448525_a_at BCL2/adenovirus E1B 19 kDa-interacting protein 3-like
90-100%: 1436809_a_at spindlin | 1437879_at Mus musculus similar to potassium channel regulator 1 (LOC380959), mRNA | 1438040_a_at tumor rejection antigen gp96 | 1448568_a_at solute carrier family 20, member 1 | 1448625_at golgi autoantigen, golgin subfamily a, 2 | 1448700_at G0/G1 switch gene 2 | 1448791_at sorting nexin 5
70-80%: 1438368_a_at matrin 3 | 1439214_a_at apoptosis inhibitor 5 | 1439811_at 5-methyltetrahydrofolate-homocysteine methyltransferase | 1444112_at Mus musculus LOC381492 (LOC381492), mRNA | 1446812_at Mus musculus transcribed sequence with weak similarity to protein pir: S12207 (M. musculus) S12207 hypothetical protein (B2 element) - mouse | 1448732_at cathepsin B
